This assay addresses T1, 2xFlag-Polη (DNA polymerase η, wild type) (human) (UniProt Q9Y253).
T1 sequence: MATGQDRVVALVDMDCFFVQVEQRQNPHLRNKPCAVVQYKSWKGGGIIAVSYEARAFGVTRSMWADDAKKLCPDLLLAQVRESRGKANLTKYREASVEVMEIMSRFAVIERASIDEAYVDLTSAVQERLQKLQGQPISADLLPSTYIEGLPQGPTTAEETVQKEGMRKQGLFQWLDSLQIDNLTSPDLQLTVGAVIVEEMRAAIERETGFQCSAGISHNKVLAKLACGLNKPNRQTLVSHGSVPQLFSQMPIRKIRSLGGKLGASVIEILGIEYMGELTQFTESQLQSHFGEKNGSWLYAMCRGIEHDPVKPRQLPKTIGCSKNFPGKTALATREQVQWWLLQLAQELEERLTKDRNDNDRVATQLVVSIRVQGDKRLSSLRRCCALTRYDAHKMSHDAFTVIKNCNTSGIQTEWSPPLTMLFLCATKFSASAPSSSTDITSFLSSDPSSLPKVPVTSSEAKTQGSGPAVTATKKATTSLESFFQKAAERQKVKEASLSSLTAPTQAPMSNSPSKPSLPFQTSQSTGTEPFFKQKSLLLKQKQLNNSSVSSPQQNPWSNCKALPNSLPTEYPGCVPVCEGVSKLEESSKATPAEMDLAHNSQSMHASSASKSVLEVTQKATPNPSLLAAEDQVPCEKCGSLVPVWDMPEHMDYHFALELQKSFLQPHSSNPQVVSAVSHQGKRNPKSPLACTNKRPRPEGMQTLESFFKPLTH
Nature of the assay: affinity purification with mass spectrometry; HEK293T transfected with 2xFlag-Polη; immunopurification from nuclear extracts; SDS-PAGE, silver staining, bands cut, LC-MS/MS.

No constants are given. Whether binding was seen depends on the method and setting. In cells and extracts the contact can be indirect. A yes stands for co-enrichment or nearness to the bait. Other partners may have been found. Tags and fused reporters may be left off the sequences shown.

B1: O-GlcNAc transferase (OGT), endogenous (enzyme, UniProt O15294 1-1046)
chain: MASSVGNVADSTEPTKRMLSFQGLAELAHREYQAGDFEAAERHCMQLWRQEPDNTGVLLLLSSIHFQCRRLDRSAHFSTLAIKQNPLLAEAYSNLGNVYKERGQLQEAIEHYRHALRLKPDFIDGYINLAAALVAAGDMEGAVQAYVSALQYNPDLYCVRSDLGNLLKALGRLEEAKACYLKAIETQPNFAVAWSNLGCVFNAQGEIWLAIHHFEKAVTLDPNFLDAYINLGNVLKEARIFDRAVAAYLRALSLSPNHAVVHGNLACVYYEQGLIDLAIDTYRRAIELQPHFPDAYCNLANALKEKGSVAEAEDCYNTALRLCPTHADSLNNLANIKREQGNIEEAVRLYRKALEVFPEFAAAHSNLASVLQQQGKLQEALMHYKEAIRISPTFADAYSNMGNTLKEMQDVQGALQCYTRAIQINPAFADAHSNLASIHKDSGNIPEAIASYRTALKLKPDFPDAYCNLAHCLQIVCDWTDYDERMKKLVSIVADQLEKNRLPSVHPHHSMLYPLSHGFRKAIAERHGNLCLDKINVLHKPPYEHPKDLKLSDGRLRVGYVSSDFGNHPTSHLMQSIPGMHNPDKFEVFCYALSPDDGTNFRVKVMAEANHFIDLSQIPCNGKAADRIHQDGIHILVNMNGYTKGARNELFALRPAPIQAMWLGYPGTSGALFMDYIITDQETSPAEVAEQYSEKLAYMPHTFFIGDHANMFPHLKKKAVIDFKSNGHIYDNRIVLNGIDLKAFLDSLPDVKIVKMKCPDGGDNADSSNTALNMPVIPMNTIAEAVIEMINRGQIQITINGFSISNGLATTQINNKAATGEEVPRTIIVTTRSQYGLPEDAIVYCNFNQLYKIDPSTLQMWANILKRVPNSVLWLLRFPAVGEPNIQQYAQNMGLPQNRIIFSPVAPKEEHVRRGQLADVCLDTPLCNGHTTGMDVLWAGTPMVTMPGETLASRVAASQLTCLGCLELIAKNRQEYEDIAVKLGTDLEYLKKVRGKVWKQRISSPLFNTKQYTMELERLYLQMWEHYAAGNKPDHMIKPVEVTESA
Consider B1, for which the binding result is “binds”.

These data come from publication PMC5717138.
